Measured values: the DeepSol protein solubility set

Test: soluble on expression in E. coli; label from the status in PepcDB or PDB records

| Sequence | soluble on expression in E. coli |
| --- | --- |
| MGSDKIHHHHHHMVIMEYKSIRQTLAMSSSTLKPQDAAEKEYENRLNGYSTYRSGIVFDGHEMFAVAFRELLNAMDSVRGMEVRVEALWNTLPPIARRAYLMELIGAEMQNTNTIENVHTTREEIADALDSAVADGPHKRLSELAKLFLGLSGEGAARLDLPQTLNDIRSIYDQVMDGELKDDQKPDGMLFRARTVSVYDGADRVIHKGAWPESEIQVQLTKWLALLSNETIPPLLRATMCHYAFECIHPFYDGNGRTGRFLLALQLSKSLSVPTAVSLSSAIAEAKGQYYKAFDEVQHPLNCSDVSLFCYRMIHFVATAQENIISVLSEKKAMLDAAKDNLERYADAHDVPELQRDMLFFLLQEELFDDTSNSISRRLMREWLGVGERKVSTALDALMDLGLLEAHGKRPIRYSLSDAARGEFLR | not soluble |
| ASTEKEEKMGTIIGIDLGTTYSCVGVFKNGRVEIIANDQGNRITPSYVAFSGDQGERLIGDAAKNQLTINPENTIFDAKRLIGRFYNEKTVQQDIKHWPFKIVDKSNKPNVEVKVGSETKQFTPEEVSAMVLTKMKQIAESYLGHEVKNAVVTVPAYFNDAQKQATKDAGSIAGLNVVRIINEPTAAAIAYGLDKKDGERNILVFDLGGGTFDVSLLTIDSGVFEVLATNGDTHLGGEDFDQRVMEYFIKLYKKKSGKDLRKDNRAVQKLRREVEKAKRALSTQHQTKIEIESLFDGEDFSETLTRAKFEELNMDLFRATLKPVQKVLEDADMKKTDVHEIVLVGGSTRIPKVQQLIKDYFNGKEPSRGINPDEAVAYGAAVQAGVIG | soluble |
| GAPEGPGPSGGAQGGSIHSGRIAAVHNVPLSVLIRPLPSVLDPAKVQSLVDTIREDPDSVPPIDVLWIKGAQGGDYFYSFGGCHRYAAYQQLQRETIPAKLVQSTLSDLRVYLGASTPDLQ | soluble |
| MNIGKIPVTVLSGYLGAGKTTVLNHVLANKEGMKVAVIVNDMSEVNIDATLVKQGGFTRTDEKLVELQNGCICCTLREDLIIEVEKLARLGNIDYILIESTGISEPIPVAQTFTYLDEELGIHLGDRCTLDTMVTVVDANRFWEDYESGESLLDRKQTDDEADTREVVDLLIDQIEFANVILLNKVDLVEEDDVRELTAVLHKLNPEAEILPVSHGRVDLNRILHTGLFDFDKASQGAGWIKELNEEHTPETEEYGISSFVYKRQRPFHPERWMEWLENWPQEVVRAKGFFWLATRNEMAGLISQAGTSIVIQGAGLWVAAYDKEEQQQVLAEEPELAARWHRKYGDRMNELVFIGLDMDRKEIEKSLDTCLLTDEELGQDWSALPDPLPSFTEQ | not soluble |
| MLKVFADRGGTFTDIVTVTNNQAIIDRLSRHPERFLIVTLPNQEWIIVYKVLSENPEQYQDAAIQGIRDIMGISSNEPIPTEAIEVVKMGTTVATNALLERKGDRVVLIITKGFKDALRIGYQNRPNIFARHIVLPTMLYEQVIEIDERYDAYGNELTPVNIQQAENDLQAVYNTGIRSCAIVFMHSDRYPKHEQQIAQIAQEIG | not soluble |
| GSHMKDVQTETFSVAESIEEISKANEEITNQLLGISKEMDNISTRIESISASVQETTAGSEEISSATKNIADSAQQAASFADQSTQLAKEAGDALKKVIEVTRMISNSAKDVERVVESFQKGAEEITSFVETINAIAEQTNLLALNAAIEAARAGEAGRGFAVVADEIRKLAEESQQASENVRRVVNEIRSIAEDAGKVSSEITARVEEGTKLADEADEKLNSIVGAVERINEMLQNIAAAIEEQTAAVDEITTAMTENAKNAEEITNSVKEVNARLQEISASTEEVTSRVQTIRENVQMLKEIVARYK | soluble |
| MRTPQLPEQVVRMKYFAMPPMTIQEALEHLEMVDHDFYVFRNRDTGEINVVYERNHGGYGVIQPRPTLEHHHHHH | not soluble |
| MIYHFGGYDMTRPIPTSVSQFMAKVESLCGDQHPDWALNFKTSFTNTLETTLKTYEDGTSFLLTGDIPAMWLRDSTAQMKPYLFLAKEDEEIRKIIAGLVKRQFRYICIDPYANAFNEEANEKGHQTDHTQMNPWIWERKYEIDSLCYPIQLAYLLYRETGSTDQFNDDFHRGVELILDLWTVEQDHAQSPYLFERDTWRKEDTLTHAGKGSPVAPTGMTWSGFRPSDDACQYGYLIPSNMFAVVVLSYLEDLYNNLFHNESVATRAKQLKEAIQSGIADHALVQNSKGETIYAYEVDGLGQFSIMDDANIPSLLAAPYLGFCAKDDPIYLATRRTILSQENPYYYQGNAAAGIGSSHTPENYIWHIALALQGLTALDQDSKKEMLDLLVATDAGTHLMHEGFDVNDPYQYTREWFSWANMMFCELLLDYLGFSIAPLEHHHHHH | soluble |
| AIAAAPVVAADSPVIENMTETAGGATENSAEAQKRPQFGTRFLTDPRQVFQHNAWDNVEWSAEQEEAALKKVQENSQPLPAEKQEEFDNRANEYWNDFYTIHENRFFKDRHWLFTEFPELAPQQKHLRGAEEKESLEHMLNGEDISLNPTHDEFPGASASYRILEVGCGVGNTVFPILKTNNDPGLFVYCCDFSSTAVDLVKSNPEYDPSRCHAFVHDMSDESGEYPMPDHSLDVIVLIFVLSALHPEKMQKSINRLGRLLKPGGVLLLRDYGRYDMAQLRFKKGRCLSENFYVRGDGTLVYFFTQDELHDLFSSAGLEKLQNLADRRLQVNRGKQLTMYRVWVQCKYRKVLAPT | soluble |
| MSTLTLPSDLRLPVTVFSGFLGAGKTTLLNRLLNNRDGLRVAVIVNDMSEVNIDAQLVRDGGAALSRTDETLVEFSNGCICCTLRDDLSKEVKRLALEQRYDYLLIESTGIGEPMPVAATFAVRDADGFCLSDVARLDTMVTVVDGSQFTALFSSMNTLADLGQQADSDDTRSLADLLGQQIEFADTIVISKCDLIDATQLARVRAVVRGLNRDAQIIEAHLGEVPLPQLVGTGRFDFTRAQLAPGWMRELRGEHTPETEEYGITSFVYRARRPFHPLRFNHLLAHGLSGVIRSKGFFWLASRMDWVGELSSVGSATRTQAAGFWYAARHRVDVHEENMPPQIGIAPLPYTELGWQRQQNDCWTAPLPAPHEVSDPGEYVAMQRLWHPQWGDRRQELAVIGLDMDKDVARNELDACLLSNEELRMGPMYWSALPDPFPQWRRLEHHHHHH | not soluble |
| MGHHHHHHSHMSVYSGKVLLQTTPPHVIGQLDKLIREVSTLDGVLEVRNEHFWTLGFGSLAGSVHVRIRRDANEQMVLAHVTNRLYTLVSTLTVQIFKDDWIRPALLSGPVAANVLNFSDHHVIPMPLLKGTDGLNPYVHFLWKINFFLFFDMESLSVAQAGVQWHDLGSLQPHLPGSSNSACLSLPSSWDYRHAPPHLPNFCIISKDGVLPCWPCWS | soluble |
| MSLNQRLPVTVLSGFLGAGKSTLLNHVLKNRENRRVAVIVNDMSEINIDGSEVQRDVSLNRAEERLVEMSNGCICCTLREDLLEEVGRLAREGRFDYLLIESTGISEPMPVAETFTFRDELDRSLSDVARLDTMVTVVDGMNFLRDYQEAASLASRGETLGEEDQRSITDLLIDQVEFADVILVSKIDLISSEQREELLAILRQLNAEAEILPMVMGQVPLAKILDTGRFDFDRAASAPGWLKELRGEHLPETEEYGIASMAYRARRPFHPARFHAFLHNPLKQGRLLRSKGFFWLASRPREAGSWSQAGGLMRYGLAGRWWRFVPTGQWPQDEEGLRAIMRHWEEGVGDCRQELVFIGQNLDFAALRAALDACLLDDAEMNLGIPGWQGLDDPFEDWGHAEGHHHHHH | soluble |
| MKKRRSDMIKKGFDRAPHRSLLRAAGVKEEDFDKPFIAVVNSYIDIIPGHVHLQEFGRIVKEAIREAGGVPFEMNTIGVDDGIAMGHIGMRYSLPSREIIADSIETVISAHWFDGMVCIPNCDKITPGMMMAAMRLNIPTIFVSGGPMKAGVTKDGRKISLSSVFEGVGAYLGGTLDEKGLEELERYGCPTCGSCSGMFTANSMNCLAEALGLALPGNGTILAVDPARKELVRQSAKQLMYLIEHDIKPRDIVTEKAIDNAFALDMALGGSTNTVLHTLAIANEAGIDYSLERINEIAARVPHLAKLAPASDVHYIEDLHEAGGVSAVLNELAKKEGTLHLDTLTVTGKTLGENIAGCEVKNYDVIRPIDNPYSETGGLAILFGNLAPDGAVIKTGAVQGGITRHEGPAIVFDSQEEALEGIASGKIKPGHVVVIRYEGPKGGPGMPEMLAPTSQIVGMGLGTKVALVTDGRFSGASRGLSVGHVSPEAAEGGPIAFIQDGDIIEIDTVKRTINVKLSDEELERRKANWKGFEPKVKTGYLARYSKHVTSASTGGIMKI | not soluble |
